From publication PMC4600727 (2015) come the findings set out here.

Results are given in words; binding and its absence hold for the method and conditions named. Binding calls can cover weak binding; strength is not graded here. Sequences can lack the tags named with a protein. For part of these data: In cells and extracts the contact can be indirect.

Experiment [1] deals with T1, GST-tagged Brat NHL (Drosophila) (UniProt Q8MQJ9).
T1 sequence: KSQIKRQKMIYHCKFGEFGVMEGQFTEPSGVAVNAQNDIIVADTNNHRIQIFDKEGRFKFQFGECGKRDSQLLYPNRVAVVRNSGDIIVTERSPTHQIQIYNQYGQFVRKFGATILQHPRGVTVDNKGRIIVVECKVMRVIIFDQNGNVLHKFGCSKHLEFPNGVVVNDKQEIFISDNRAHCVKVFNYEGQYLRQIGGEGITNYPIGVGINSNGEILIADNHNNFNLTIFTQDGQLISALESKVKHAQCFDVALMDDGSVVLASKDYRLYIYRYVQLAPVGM
As to the kind of experiment: pull-down; GST-tagged Brat NHL (8 μM) on GSH-Sepharose 4B, one partner (24 μM); 50 mM Tris pH 8.0, 100 mM NaCl, 1 mM DTT, 1 mM EDTA; 1 h at 4 °C; Coomassie; both purified.

The target in experiment [2] is full-length Flag-Mira (Drosophila). As to the kind of experiment: co-IP; HEK293T cotransfected with full-length Flag-Mira and HA-Stau or GFP–Brat; lysate on anti-Flag M2 affinity gel overnight; immunoblot.
Experiment [3] shares this target. As to the kind of experiment: co-IP; competition: lysate with Flag-Mira and GFP–Brat on anti-Flag M2 affinity gel overnight with or without 0.8 mg purified Trx-Stau dsRBD5.

Regarding “Mira CBDL (aa 210–668) (Drosophila) (domain or fragment)”, in experiment [1], the binding result was “binds”.

B1: full-length GFP–Brat (protein, UniProt Q8MQJ9 1-1037)
chain: MASSPTPSLDSMRGGANSIESYEHAGYLSDSPLTLSGSSPPASDSAICSDEYTGGSSVKSRSEVTVINGHHPISASVSSSSSASSSSCSSSSSSSSSSSSSSSSTSGLSGCGSTSSSVISANNVASSNGPGVIGSNLQSSNNGGNSGISSLVVGAGKGSNSSSNSSSSNTSANGSPPRCTACKSKCSDAVAKCFECQSYLCANCVTAHEFMHCFNGHNVCLIKGFEASTTGTPLSVGSPSNNPASNEFKYASSLTMMLQQQQQLDSQQQQQQQQLLPAQPMSQLSKIVLAAAAQANSQEQQREDSIYGSLHPQQQQQQQQQQQRQLFCPRHKQELLKFSCRTCCILVCKECIVLEHSTGLHELENVQSPGMTTSTGSTANESALQTLLADMRGKIGEIVGIAGNSDQNLTKVKLQYQKAHNELNETHQFFASMLDERKTELLKELETLYTAKVNSNNSWQQRSRDLIDKGLATCEAVERSPAPPSSLLTEALLLRKSLEQQLQTGIQEMQLPFEIEFMSNYQSIQAGVRNTFGYIRANSSDGGPTGMSLTSNGHGKQPPIARPTQSASNSSASSAGSGHHGHHQQSHHHGHHNHHQTAHHQQLQAQSSLHGLGLGLSGASLLDSSSSAGGAVGAFSNGGLLLGGRDRNALAVEQHFGELMPKRGGGGYTGSNGSATSAVAHYNPYEKWSNGGSDNLFSSVTSGVSGSSAVADAFASLSAVGGSVVSGAGAGGSTVSSESLLDLTNKLLSATIYPPKSQIKRQKMIYHCKFGEFGVMEGQFTEPSGVAVNAQNDIIVADTNNHRIQIFDKEGRFKFQFGECGKRDSQLLYPNRVAVVRNSGDIIVTERSPTHQIQIYNQYGQFVRKFGATILQHPRGVTVDNKGRIIVVECKVMRVIIFDQNGNVLHKFGCSKHLEFPNGVVVNDKQEIFISDNRAHCVKVFNYEGQYLRQIGGEGITNYPIGVGINSNGEILIADNHNNFNLTIFTQDGQLISALESKVKHAQCFDVALMDDGSVVLASKDYRLYIYRYVQLAPVGM
With B1, the binding entry in experiment [2] and in experiment [3] was “binds” each time.
